Results are given in words; binding and its absence hold for the method and conditions named.

By UniProt entry, the sequences of proteins in these tests, tags left out. Where a name states a change or a piece, a line headed by the entry shows the natural chain unless it says otherwise. Chains listed by the source or under a name are the forms on record and can include a tag or linker.
DREB2A_(195-276) Y242A (O82132, form named): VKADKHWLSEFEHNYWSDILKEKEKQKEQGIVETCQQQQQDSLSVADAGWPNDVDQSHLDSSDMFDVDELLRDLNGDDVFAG

The target of this assay is T1, Med25-ACID_(532-680), activator interaction domain (ACID) of mediator complex subunit 25 (Arabidopsis thaliana) (UniProt Q7XYY2).
T1 sequence: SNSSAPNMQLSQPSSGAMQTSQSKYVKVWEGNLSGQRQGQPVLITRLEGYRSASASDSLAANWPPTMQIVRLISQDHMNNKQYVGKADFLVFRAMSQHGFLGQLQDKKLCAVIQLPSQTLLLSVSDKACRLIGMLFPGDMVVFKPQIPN
The experiment in a line: ITC; 25 °C; 50 mM HEPES pH 7.4, 100 mM NaCl, 0.5 mM TCEP; ~1:10 cell to syringe concentration ratio, cell around 15 µM for high-affinity fragments; one-set-of-sites model; which protein was in the cell is not stated; both purified. (In general: Isothermal titration calorimetry measures the heat released or taken up as one component is titrated into another.)

Consider “DREB2A_(195-276) Y242A (from UniProt O82132 195-276) (domain or fragment)”, for which the binding entry is listed as “no binding”.

The values are drawn from PMC10796322, “Molecular switching in transcription through splicing and proline-isomerization regulates stress responses in plants” (Nature Communications, 2024).
